The source of these data is paper PMC12032772.

Results are given in words; binding and its absence hold for the method and conditions named. In cells and extracts the contact can be indirect. Here binding means that the protein was enriched with, or labelled near, the bait; the list need not be complete. Sequences can lack the tags named with a protein.

Sequences and labels used below:
B1: Mannosyl-oligosaccharide glucosidase (enzyme, UniProt Q13724 1-837)
chain: MARGERRRRAVPAEGVRTAERAARGGPGRRDGRGGGPRSTAGGVALAVVVLSLALGMSGRWVLAWYRARRAVTLHSAPPVLPADSSSPAVAPDLFWGTYRPHVYFGMKTRSPKPLLTGLMWAQQGTTPGTPKLRHTCEQGDGVGPYGWEFHDGLSFGRQHIQDGALRLTTEFVKRPGGQHGGDWSWRVTVEPQDSGTSALPLVSLFFYVVTDGKEVLLPEVGAKGQLKFISGHTSELGDFRFTLLPPTSPGDTAPKYGSYNVFWTSNPGLPLLTEMVKSRLNSWFQHRPPGAPPERYLGLPGSLKWEDRGPSGQGQGQFLIQQVTLKIPISIEFVFESGSAQAGGNQALPRLAGSLLTQALESHAEGFRERFEKTFQLKEKGLSSGEQVLGQAALSGLLGGIGYFYGQGLVLPDIGVEGSEQKVDPALFPPVPLFTAVPSRSFFPRGFLWDEGFHQLVVQRWDPSLTREALGHWLGLLNADGWIGREQILGDEARARVPPEFLVQRAVHANPPTLLLPVAHMLEVGDPDDLAFLRKALPRLHAWFSWLHQSQAGPLPLSYRWRGRDPALPTLLNPKTLPSGLDDYPRASHPSVTERHLDLRCWVALGARVLTRLAEHLGEAEVAAELGPLAASLEAAESLDELHWAPELGVFADFGNHTKAVQLKPRPPQGLVRVVGRPQPQLQYVDALGYVSLFPLLLRLLDPTSSRLGPLLDILADSRHLWSPFGLRSLAASSSFYGQRNSEHDPPYWRGAVWLNVNYLALGALHHYGHLEGPHQARAAKLHGELRANVVGNVWRQYQATGFLWEQYSDRDGRGMGCRPFHGWTSLVLLAMAEDY
B2: PDIA6 (protein, UniProt Q15084 20-440)
chain: LYSSSDDVIELTPSNFNREVIQSDSLWLVEFYAPWCGHCQRLTPEWKKAATALKDVVKVGAVDADKHHSLGGQYGVQGFPTIKIFGSNKNRPEDYQGGRTGEAIVDAALSALRQLVKDRLGGRSGGYSSGKQGRSDSSSKKDVIELTDDSFDKNVLDSEDVWMVEFYAPWCGHCKNLEPEWAAAASEVKEQTKGKVKLAAVDATVNQVLASRYGIRGFPTIKIFQKGESPVDYDGGRTRSDIVSRALDLFSDNAPPPELLEIINEDIAKRTCEEHQLCVVAVLPHILDTGAAGRNSYLEVLLKLADKYKKKMWGWLWTEAGAQSELETALGIGGFGYPAMAAINARKMKFALLKGSFSEQGINEFLRELSFGRGSTAPVGGGAFPTIVEREPWDGRDGELPVEDDIDLSDVELDDLGKDEL
B3: PRXV (protein, UniProt P30044 53-214)
chain: MAPIKVGDAIPAVEVFEGEPGNKVNLAELFKGKKGVLFGVPGAFTPGCSKTHLPGFVEQAEALKAKGVQVVACLSVNDAFVTGEWGRAHKAEGKVRLLADPTGAFGKETDLLLDDSLVSIFGNRRLKRFSMVVQDGIVKALNVEPDGTGLTCSLAPNIISQL
B4: DnaJ homolog subfamily C member 3 (protein, UniProt Q13217 32-504)
chain: GVNADVEKHLELGKKLLAAGQLADALSQFHAAVDGDPDNYIAYYRRATVFLAMGKSKAALPDLTKVIQLKMDFTAARLQRGHLLLKQGKLDEAEDDFKKVLKSNPSENEEKEAQSQLIKSDEMQRLRSQALNAFGSGDYTAAIAFLDKILEVCVWDAELRELRAECFIKEGEPRKAISDLKAASKLKNDNTEAFYKISTLYYQLGDHELSLSEVRECLKLDQDHKRCFAHYKQVKKLNKLIESAEELIRDGRYTDATSKYESVMKTEPSIAEYTVRSKERICHCFSKDEKPVEAIRVCSEVLQMEPDNVNALKDRAEAYLIEEMYDEAIQDYETAQEHNENDQQIREGLEKAQRLLKQSQKRDYYKILGVKRNAKKQEIIKAYRKLALQWHPDNFQNEEEKKKAEKKFIDIAAAKEVLSDPEMRKKFDDGEDPLDAESQQGGGGNPFHRSWNSWQGFNPFSSGGPFRFKFHFN
B5: ERO1 A (protein, UniProt Q96HE7 24-468)
chain: EEQPPETAAQRCFCQVSGYLDDCTCDVETIDRFNNYRLFPRLQKLLESDYFRYYKVNLKRPCPFWNDISQCGRRDCAVKPCQSDEVPDGIKSASYKYSEEANNLIEECEQAERLGAVDESLSEETQKAVLQWTKHDDSSDNFCEADDIQSPEAEYVDLLLNPERYTGYKGPDAWKIWNVIYEENCFKPQTIKRPLNPLASGQGTSEENTFYSWLEGLCVEKRAFYRLISGLHASINVHLSARYLLQETWLEKKWGHNITEFQQRFDGILTEGEGPRRLKNLYFLYLIELRALSKVLPFFERPDFQLFTGNKIQDEENKMLLLEILHEIKSFPLHFDENSFFAGDKKEAHKLKEDFRLHFRNISRIMDCVGCFKCRLWGKLQTQGLGTALKILFSEKLIANMPESGPSYEFHLTRQEIVSLFNAFGRISTSVKELENFRNLLQNIH
B6: LMAN1 (protein, UniProt P49257 31-510)
chain: DGVGGDPAVALPHRRFEYKYSFKGPHLVQSDGTVPFWAHAGNAIPSSDQIRVAPSLKSQRGSVWTKTKAAFENWEVEVTFRVTGRGRIGADGLAIWYAENQGLEGPVFGSADLWNGVGIFFDSFDNDGKKNNPAIVIIGNNGQIHYDHQNDGASQALASCQRDFRNKPYPVRAKITYYQNTLTVMINNGFTPDKNDYEFCAKVENMIIPAQGHFGISAATGGLADDHDVLSFLTFQLTEPGKEPPTPDKEISEKEKEKYQEEFEHFQQELDKKKEEFQKGHPDLQGQPAEEIFESVGDRELRQVFEGQNRIHLEIKQLNRQLDMILDEQRRYVSSLTEEISKRGAGMPGQHGQITQQELDTVVKTQHEILRQVNEMKNSMSETVRLVSGMQHPGSAGGVYETTQHFIDIKEHLHIVKRDIDNLVQRNMPSNEKPKCPELPPFPSCLSTVHFIIFVVVQTVLFIGYIMYRSQQEAAAKKFF
B7: Hypoxia up-regulated protein 1 (protein, UniProt Q9Y4L1 33-999)
chain: LAVMSVDLGSESMKVAIVKPGVPMEIVLNKESRRKTPVIVTLKENERFFGDSAASMAIKNPKATLRYFQHLLGKQADNPHVALYQARFPEHELTFDPQRQTVHFQISSQLQFSPEEVLGMVLNYSRSLAEDFAEQPIKDAVITVPVFFNQAERRAVLQAARMAGLKVLQLINDNTATALSYGVFRRKDINTTAQNIMFYDMGSGSTVCTIVTYQMVKTKEAGMQPQLQIRGVGFDRTLGGLEMELRLRERLAGLFNEQRKGQRAKDVRENPRAMAKLLREANRLKTVLSANADHMAQIEGLMDDVDFKAKVTRVEFEELCADLFERVPGPVQQALQSAEMSLDEIEQVILVGGATRVPRVQEVLLKAVGKEELGKNINADEAAAMGAVYQAAALSKAFKVKPFVVRDAVVYPILVEFTREVEEEPGIHSLKHNKRVLFSRMGPYPQRKVITFNRYSHDFNFHINYGDLGFLGPEDLRVFGSQNLTTVKLKGVGDSFKKYPDYESKGIKAHFNLDESGVLSLDRVESVFETLVEDSAEEESTLTKLGNTISSLFGGGTTPDAKENGTDTVQEEEESPAEGSKDEPGEQVELKEEAEAPVEDGSQPPPPEPKGDATPEGEKATEKENGDKSEAQKPSEKAEAGPEGVAPAPEGEKKQKPARKRRMVEEIGVELVVLDLPDLPEDKLAQSVQKLQDLTLRDLEKQEREKAANSLEAFIFETQDKLYQPEYQEVSTEEQREEISGKLSAASTWLEDEGVGATTVMLKEKLAELRKLCQGLFFRVEERKKWPERLSALDNLLNHSSMFLKGARLIPEMDQIFTEVEMTTLEKVINETWAWKNATLAEQAKLPATEKPVLLSKDIEAKMMALDREVQYLLNKAKFTKPRPRPKDKNGTRAEPPLNASASDQGEKVIPPAGQTEDAEPISEPEKVETGSEPGDTEPLELGGPGAEPEQKEQSTGQKRPLKNDEL

The assay addresses H6PD-BirA*-HA fusion protein. In words: proximity labelling; BioID: MDA-MB-231 clone stably expressing H6PD-BirA*-HA, 50 µM biotin for 72 h; RIPA lysate, streptavidin magnetic beads, label-free quantitative MS, compared to parental MDA-MB-231 cells.
With B1, the binding result is “binds”.
Consider B2, for which the binding result is “binds”.
Turning to B3, the binding entry was “binds”.
For B4, the binding result is on record as “binds”.
The entry for B5 is “binds”; for B6 it is “binds”; for B7 it is “binds”.
